{
  "source": "PubChem BioAssay AID720511",
  "about": "(Broad Institute, 2013)",
  "note": "Several values for one entry are separate records, joined by “and”; a condition that tells them apart may be missing. Identical values can stand only once. About 1,300 (0.37%) of roughly 350,000 compounds were called active. Inconclusive results, whose numbers are uncertain, are shown with a selection of clear calls.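 How the source made its calls: active means mean added fluorescence quench of at least 8% versus neutral control, with both replicates also reaching 8%; inconclusive means only one of the mean or replicate conditions met; inactive means mean below 8% and not both replicates reaching 8%.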",
  "data": [
    {"experiment": "F508del CFTR correction, initial screen, CFBE line, single point (AID 720511);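 further: cells transiently co-express mutant CFTR-F508del with the halide-sensitive YFP; corrector assay measuring rescue of mutant channel to the surface after 24 h compound exposure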", "details": "CFBE cells, YFP halide quenching, at 7.58 µM, stronger effect = higher value, % fluorescence drop versus neutral controls, stimulated with forskolin plus potentiator P3", "values": [
      {"smiles": "O=C(O)[C@H]1Cc2ccccc2CN1S(=O)(=O)c1ccc(F)cc1", "activity (quench increase)": "inactive: 0.076%"},
      {"smiles": "COc1ccc2c3c([nH]c2c1)[C@H](CO)N(C(=O)CN1CCOCC1)CC31CN(C)C1", "activity (quench increase)": "inactive: -1.42%"},
      {"smiles": "O=S(=O)(NC1CCc2ccccc21)c1ccccc1", "note": "(stereo not given)", "activity (quench increase)": "inactive: 2.68%"},
      {"smiles": "COc1ccc(-c2ccc3c(c2)[C@H]2[C@H](CCN2S(=O)(=O)c2ccc(OC)cc2)[C@H](CO)N3C)cc1", "activity (quench increase)": "inconclusive: 12.6%"},
      {"smiles": "COc1ccccc1S(=O)(=O)Nc1ccc2c(c1)C(=O)N(C)C[C@@H](OC)[C@@H](C)CN[C@H](C)CO2", "activity (quench increase)": "inconclusive: 9.63%"},
      {"smiles": "C[C@@H]1CN([C@@H](C)CO)S(=O)(=O)c2ccc(-c3ccccc3)cc2O[C@H]1CN(C)S(=O)(=O)c1ccccc1F", "activity (quench increase)": "inconclusive: 11.1%"},
      {"smiles": "CCCCCc1ccc(OCCCC[n+]2ccc(C)cc2)c(CCCCC)c1", "activity (quench increase)": "inconclusive: 8.29%"},
      {"smiles": "CCCC(=O)NC1=C(Cl)C(=O)c2ccccc2C1=O", "activity (quench increase)": "active: 45%"},
      {"smiles": "C=CCn1c(C)cc(C(=O)Cn2ncc(Cl)c(Cl)c2=O)c1C", "activity (quench increase)": "inconclusive: 8.03%"},
      {"smiles": "O=C(Nc1ccc(CN2CCOCC2)cc1)c1ccc(N2CCCC2)c([N+](=O)[O-])c1", "activity (quench increase)": "inconclusive: 8.32%"},
      {"smiles": "CCCNC(=O)N1CC(=O)N2[C@H](CO)[C@@H](c3ccc(C#Cc4cccc(OC)c4)cc3)[C@@H]2C1", "activity (quench increase)": "inconclusive: 8.08%"},
      {"smiles": "CCCOc1ccc(C(=O)Nc2ccc(NC(=O)c3cccs3)cc2)cc1", "activity (quench increase)": "inactive: -0.541%"},
      {"smiles": "CCCCNc1c(-c2ccc(OC)c(SC(C)CC)c2)nc2cc(C)ccn12", "note": "(stereo not given)", "activity (quench increase)": "inactive: -0.457% and inactive: 3.02%"},
      {"smiles": "CN(C)CCCN1C(=O)c2cccc3cccc(c23)C1=O", "activity (quench increase)": "inconclusive: 8.97%"},
      {"smiles": "C[C@@H]1CN([C@H](C)CO)C(=O)c2cccc(NS(=O)(=O)c3ccccc3)c2O[C@H]1CN(C)Cc1ccc(Oc2ccccc2)cc1", "activity (quench increase)": "inactive: -3.9%"},
      {"smiles": "CSc1ccc(S(=O)(=O)N2c3ccccc3CC2C)cc1", "note": "(stereo not given)", "activity (quench increase)": "inconclusive: 8.41%"},
      {"smiles": "COc1ccc2c3c([nH]c2c1)[C@@H](CO)N(Cc1ccccc1)CC31CCN(S(C)(=O)=O)CC1", "activity (quench increase)": "inactive: -1.56%"},
      {"smiles": "CC1(C)CCN2CCC(C)(C)c3c(O)ccc1c32", "activity (quench increase)": "active: 37.9%"},
      {"smiles": "COC(=O)Cn1c(=O)c(C(=O)CCl)c(N)n(Cc2ccccc2)c1=O", "activity (quench increase)": "inactive: -3.7%"},
      {"smiles": "C[C@H](CO)N1C[C@H](C)[C@@H](CN(C)S(=O)(=O)c2ccc(Cl)cc2)OCCCC[C@H](C)Oc2ccc(NC(=O)CCCN(C)C)cc2C1=O", "activity (quench increase)": "inactive: 0.381%"},
      {"smiles": "COc1cccc(-c2nc(CS(=O)(=O)CC(=O)NC3CCCCC3C)c(C)o2)c1", "note": "(stereo not given)", "activity (quench increase)": "inactive: 0.579%"},
      {"smiles": "CCc1ccc(NC(=S)N(Cc2ccccc2)Cc2ccccn2)cc1", "activity (quench increase)": "inactive: 1.21%"},
      {"smiles": "Cc1c(C(=O)O)sc2nc3n(c(=O)c12)CCC3", "activity (quench increase)": "inactive: -2.42%"},
      {"smiles": "Cc1ccc(Cl)cc1N1CCN(S(C)(=O)=O)CC1", "activity (quench increase)": "inactive: -1.95%"},
      {"smiles": "CC(=O)N[C@@H]1CC[C@@H](CCNC(=O)C2CCC2)O[C@H]1CO", "activity (quench increase)": "inactive: 0.178%"},
      {"smiles": "COc1ccc(C2CC(c3ccc4ccccc4c3OC(C)=O)=NN2C(C)=O)cc1", "note": "(stereo not given)", "activity (quench increase)": "inconclusive: 9.25%"},
      {"smiles": "COc1ccccc1C1CC(=O)Nc2cc(C)c(C)cc21", "note": "(stereo not given)", "activity (quench increase)": "inconclusive: 8.07%"},
      {"smiles": "CC(C)CC#Cc1ccc([C@@H]2[C@H]3CN(S(=O)(=O)c4cccc(F)c4)CC(=O)N3[C@H]2CO)cc1", "activity (quench increase)": "inconclusive: 8.23%"},
      {"smiles": "Nc1cccnc1Oc1ccc(F)cc1", "activity (quench increase)": "inactive: -0.623%"},
      {"smiles": "CCOc1ccc(N/C(N)=N/c2nc(CSc3nnc(C)s3)cc(=O)[nH]2)cc1", "activity (quench increase)": "inconclusive: 10.8%"},
      {"smiles": "O=C(COc1ccc(C(=S)N2CCC(Cc3ccccc3)CC2)cc1)N1CCOCC1", "activity (quench increase)": "inconclusive: 10.1%"},
      {"smiles": "COc1ccc(NC(=O)N(C)C[C@H]2OCCCC[C@@H](C)Oc3ccc(NC(=O)c4ccccc4)cc3C(=O)N([C@@H](C)CO)C[C@@H]2C)cc1", "activity (quench increase)": "inactive: 0.987%"},
      {"smiles": "CCC1=Nc2cc(C(=O)NCc3cccnc3)ccc2Sc2ccc(C)cc21", "activity (quench increase)": "active: 12.2%"},
      {"smiles": "COc1ccc(-n2nc3c(c2NC(=O)C2CCCC2)CS(=O)(=O)C3)cc1", "activity (quench increase)": "inconclusive: 8.16%"},
      {"smiles": "O=S(=O)(c1ccc2c(c1)OCCO2)N1CCN(c2ncnc3sccc23)CC1", "activity (quench increase)": "inconclusive: 8.11%"},
      {"smiles": "CCOC(=O)CN(C(=O)COc1nc(-c2ccccc2)cc(C)c1C#N)c1ccccc1C", "activity (quench increase)": "inconclusive: 8.35%"},
      {"smiles": "Cc1cccc(N=C2NC(=O)/C(=C/c3cccs3)S2)c1", "activity (quench increase)": "inconclusive: 8.96%"},
      {"smiles": "NNC(=O)c1cc2c(s1)-c1cc(Cl)ccc1SC2", "activity (quench increase)": "inconclusive: 8.36%"},
      {"smiles": "Cc1cccc(N/N=C/c2ccc(O)c(O)c2O)c1", "activity (quench increase)": "inconclusive: 9.39%"},
      {"smiles": "CCCCCc1nnc(NC(=O)Cc2ccc([N+](=O)[O-])cc2)s1", "activity (quench increase)": "inconclusive: 9.12%"},
      {"smiles": "COc1ccccc1-c1nnc(SCC(=O)NCc2ccco2)n1N", "activity (quench increase)": "inconclusive: 10.3%"},
      {"smiles": "CC(=O)OCCn1c2nc(=O)[nH]c(=O)c-2nc2cc(C)c(C)cc21", "activity (quench increase)": "active: 17.7%"},
      {"smiles": "COc1ccc(-c2ccc3c(c2)[C@H]2[C@H](CCN2S(=O)(=O)c2ccc(OC)cc2)[C@@H](CO)N3C)cc1", "activity (quench increase)": "inconclusive: 3.03%"},
      {"smiles": "Cc1ccc(S(=O)(=O)NCC(=O)NCC(=O)OCC(=O)N2CC(=O)Nc3ccccc32)cc1C", "activity (quench increase)": "inconclusive: 12.3%"},
      {"smiles": "CCSc1ncc(Cl)c(C(=O)Nc2ccccc2C)n1", "activity (quench increase)": "inactive: 0.607%"},
      {"smiles": "O=S(=O)(c1ccc(Br)cc1)c1nc(-c2ccco2)oc1NCCCn1ccnc1", "activity (quench increase)": "inactive: 0.855%"},
      {"smiles": "C[C@@H]1CN([C@H](C)CO)C(=O)Cc2cc(NS(=O)(=O)c3ccccc3)ccc2O[C@@H]1CN(C)CC1CC1", "activity (quench increase)": "inactive: -2.3%"},
      {"smiles": "COCC(=O)N(C)C[C@H]1Oc2ncc(C3=CCCCC3)cc2C(=O)N([C@@H](C)CO)C[C@@H]1C", "activity (quench increase)": "inactive: -1.76%"},
      {"smiles": "O=C(O)CN1C(=O)/C(=C\\c2cc(Br)ccc2OCc2ccc(F)cc2)SC1=S", "activity (quench increase)": "inactive: 3.74%"},
      {"smiles": "COc1ccc([Si](C)(C)[C@@H]2[C@@H](CCn3cc([C@H](O)c4ccccc4)nn3)O[C@]3(C(=O)N(c4ccccc4)c4ccccc43)[C@H]2C)cc1", "activity (quench increase)": "inconclusive: 9.13%"}
    ]}
  ]
}
